Assay results published in PubChem BioAssay AID2662 (National Center for Advancing Translational Sciences (NCATS), 2010).
Hit rate of the full screen: of about 290,000 compounds, about 110 (0.038%) were called active. Inconclusive results, whose numbers are uncertain, are shown with a selection of clear calls. Calls follow the shape of the dose curve; as a rule, active = well fitted inhibition curve with a large enough effect in the polarisation, with a control signal flat (not every such curve was filed as active); inconclusive = small, poorly fitted or top-dose-only effect, or effect the other way, or a change in a side signal; inactive = no such curve, though single readings can be large or run the other way; the % refers to the polarisation. Potencies of inconclusive entries are doubtful fits and often do not repeat. A note “side channel” means that the fit belongs to a control or component signal, not to the main read-out.

By UniProt entry, the sequences of proteins in these tests, tags left out.
UniProt Q03164, whole entry, looked up: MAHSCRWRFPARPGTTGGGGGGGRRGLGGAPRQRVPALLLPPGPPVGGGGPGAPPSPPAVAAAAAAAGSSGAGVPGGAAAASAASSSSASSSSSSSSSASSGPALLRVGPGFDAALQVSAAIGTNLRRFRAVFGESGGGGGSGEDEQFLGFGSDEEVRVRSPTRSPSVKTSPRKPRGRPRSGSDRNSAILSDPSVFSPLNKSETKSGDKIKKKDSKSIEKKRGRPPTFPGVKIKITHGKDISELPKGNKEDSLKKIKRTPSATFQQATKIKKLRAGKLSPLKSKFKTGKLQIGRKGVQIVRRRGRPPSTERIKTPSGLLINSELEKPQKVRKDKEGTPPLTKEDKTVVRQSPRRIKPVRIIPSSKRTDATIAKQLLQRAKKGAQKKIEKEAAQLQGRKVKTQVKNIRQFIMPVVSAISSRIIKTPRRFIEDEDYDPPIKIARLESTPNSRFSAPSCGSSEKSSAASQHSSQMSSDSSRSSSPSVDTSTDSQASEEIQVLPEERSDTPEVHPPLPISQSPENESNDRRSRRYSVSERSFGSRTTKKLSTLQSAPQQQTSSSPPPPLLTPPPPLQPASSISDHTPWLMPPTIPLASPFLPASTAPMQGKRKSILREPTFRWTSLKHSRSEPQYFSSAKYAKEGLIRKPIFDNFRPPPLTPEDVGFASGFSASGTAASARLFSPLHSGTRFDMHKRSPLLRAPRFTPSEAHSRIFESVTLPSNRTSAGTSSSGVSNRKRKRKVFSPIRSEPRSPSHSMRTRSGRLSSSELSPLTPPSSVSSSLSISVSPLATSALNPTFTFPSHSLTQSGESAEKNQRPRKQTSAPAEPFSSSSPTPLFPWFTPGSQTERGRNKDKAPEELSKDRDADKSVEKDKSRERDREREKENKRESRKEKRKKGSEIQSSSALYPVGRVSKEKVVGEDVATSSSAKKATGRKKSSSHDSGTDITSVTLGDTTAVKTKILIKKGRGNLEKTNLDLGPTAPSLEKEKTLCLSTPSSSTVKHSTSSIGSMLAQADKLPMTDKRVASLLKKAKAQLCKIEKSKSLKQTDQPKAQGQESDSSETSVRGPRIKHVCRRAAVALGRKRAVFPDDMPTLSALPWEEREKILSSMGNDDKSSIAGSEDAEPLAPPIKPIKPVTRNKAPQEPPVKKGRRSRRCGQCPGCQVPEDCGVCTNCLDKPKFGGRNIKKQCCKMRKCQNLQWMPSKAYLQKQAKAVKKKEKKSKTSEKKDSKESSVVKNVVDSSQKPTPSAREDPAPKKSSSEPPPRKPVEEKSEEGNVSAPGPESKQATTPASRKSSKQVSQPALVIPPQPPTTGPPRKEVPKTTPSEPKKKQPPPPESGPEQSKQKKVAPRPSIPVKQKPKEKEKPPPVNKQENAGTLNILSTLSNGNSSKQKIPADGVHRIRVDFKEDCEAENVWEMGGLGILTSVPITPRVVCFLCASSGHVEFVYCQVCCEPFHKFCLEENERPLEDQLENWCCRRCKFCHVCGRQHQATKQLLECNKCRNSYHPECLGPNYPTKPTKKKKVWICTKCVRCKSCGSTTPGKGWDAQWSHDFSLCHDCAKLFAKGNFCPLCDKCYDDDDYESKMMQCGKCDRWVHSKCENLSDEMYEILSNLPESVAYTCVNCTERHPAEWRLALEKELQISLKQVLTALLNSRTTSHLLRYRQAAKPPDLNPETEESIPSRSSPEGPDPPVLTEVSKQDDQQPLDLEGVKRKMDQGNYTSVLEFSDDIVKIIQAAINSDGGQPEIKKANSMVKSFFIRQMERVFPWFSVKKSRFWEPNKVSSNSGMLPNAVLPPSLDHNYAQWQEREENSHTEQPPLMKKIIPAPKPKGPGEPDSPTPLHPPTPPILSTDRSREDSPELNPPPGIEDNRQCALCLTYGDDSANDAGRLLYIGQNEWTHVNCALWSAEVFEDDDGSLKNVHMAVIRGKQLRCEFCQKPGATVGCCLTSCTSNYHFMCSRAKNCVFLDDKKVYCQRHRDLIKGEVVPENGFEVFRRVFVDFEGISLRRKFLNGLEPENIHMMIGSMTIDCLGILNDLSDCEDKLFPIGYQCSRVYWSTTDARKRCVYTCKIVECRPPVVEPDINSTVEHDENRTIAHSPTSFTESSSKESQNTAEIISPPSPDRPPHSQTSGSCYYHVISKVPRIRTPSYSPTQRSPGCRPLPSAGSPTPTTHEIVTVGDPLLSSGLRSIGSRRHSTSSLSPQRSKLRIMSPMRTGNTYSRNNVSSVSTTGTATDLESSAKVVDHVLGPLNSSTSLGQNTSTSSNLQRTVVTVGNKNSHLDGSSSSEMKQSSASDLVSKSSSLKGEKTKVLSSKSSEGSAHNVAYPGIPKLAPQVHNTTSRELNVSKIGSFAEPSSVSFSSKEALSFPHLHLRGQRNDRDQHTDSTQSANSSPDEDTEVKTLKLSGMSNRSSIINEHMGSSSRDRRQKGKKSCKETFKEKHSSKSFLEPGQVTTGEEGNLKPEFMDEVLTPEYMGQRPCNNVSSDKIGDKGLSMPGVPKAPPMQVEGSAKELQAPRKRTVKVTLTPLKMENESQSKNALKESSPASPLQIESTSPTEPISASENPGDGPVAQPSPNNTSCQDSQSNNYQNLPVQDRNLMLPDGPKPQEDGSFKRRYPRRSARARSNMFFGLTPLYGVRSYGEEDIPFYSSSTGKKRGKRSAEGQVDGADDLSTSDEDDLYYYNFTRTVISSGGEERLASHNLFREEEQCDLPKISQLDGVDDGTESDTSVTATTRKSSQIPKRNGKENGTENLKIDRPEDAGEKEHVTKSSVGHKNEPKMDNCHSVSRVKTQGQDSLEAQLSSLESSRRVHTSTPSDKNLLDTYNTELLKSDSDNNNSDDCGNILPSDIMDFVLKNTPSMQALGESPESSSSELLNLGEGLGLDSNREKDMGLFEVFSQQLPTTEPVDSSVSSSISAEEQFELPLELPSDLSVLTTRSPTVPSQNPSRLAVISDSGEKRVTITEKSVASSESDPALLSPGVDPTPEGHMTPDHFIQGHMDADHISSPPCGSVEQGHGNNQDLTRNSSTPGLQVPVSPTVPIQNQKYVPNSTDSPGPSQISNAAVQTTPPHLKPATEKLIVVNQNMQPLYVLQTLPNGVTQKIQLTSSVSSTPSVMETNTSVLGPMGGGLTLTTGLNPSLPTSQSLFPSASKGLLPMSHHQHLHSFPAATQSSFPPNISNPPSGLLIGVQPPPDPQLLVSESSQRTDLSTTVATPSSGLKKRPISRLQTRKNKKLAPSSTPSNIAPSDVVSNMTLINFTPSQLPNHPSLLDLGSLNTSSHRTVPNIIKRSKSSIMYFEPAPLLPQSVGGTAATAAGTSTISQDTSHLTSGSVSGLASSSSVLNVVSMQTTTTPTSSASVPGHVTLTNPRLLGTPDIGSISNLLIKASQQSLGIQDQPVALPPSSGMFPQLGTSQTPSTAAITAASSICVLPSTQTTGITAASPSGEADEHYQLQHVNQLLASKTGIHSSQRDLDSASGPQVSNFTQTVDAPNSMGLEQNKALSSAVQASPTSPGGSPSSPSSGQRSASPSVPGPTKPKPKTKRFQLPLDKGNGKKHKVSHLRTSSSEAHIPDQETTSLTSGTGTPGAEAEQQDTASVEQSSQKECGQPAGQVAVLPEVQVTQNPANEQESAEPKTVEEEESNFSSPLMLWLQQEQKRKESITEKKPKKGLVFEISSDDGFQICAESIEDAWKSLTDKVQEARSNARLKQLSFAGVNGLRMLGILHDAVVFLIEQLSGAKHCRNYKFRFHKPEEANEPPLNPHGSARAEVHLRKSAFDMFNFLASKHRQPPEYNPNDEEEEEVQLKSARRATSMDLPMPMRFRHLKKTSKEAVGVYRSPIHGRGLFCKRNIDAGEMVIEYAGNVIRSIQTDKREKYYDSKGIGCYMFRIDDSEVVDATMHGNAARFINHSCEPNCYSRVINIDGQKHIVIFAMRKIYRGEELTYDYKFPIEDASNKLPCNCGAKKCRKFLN

Biological target: Histone-lysine N-methyltransferase 2A (Homo sapiens) (UniProt Q03164)
Experiment: qHTS Fluorescence Polarization Assay for Inhibitors of MLL CXXC domain - DNA interaction
Conditions: MLL-CXXC / FITC-HOXA9 DNA fluorescence polarization; series mostly up to 115 µM
How it was run: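 Purified MLL-CXXC (added from a 7 uM solution) was preincubated 5 min at ambient with pinned compounds in 50 mM Tris-HCl pH 7.5, 50 mM NaCl, 1 mM DTT, 0.05% BSA. Fluorescein-labeled HOX-A9 DNA (50 nM solution) followed, 30 min, then polarization read.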
Potency is read from the fitted curve at half-maximal effect.

Row | SMILES | Potency
1 | CC(C)C[C@@H](NC(=O)[C@H](Cc1ccccc1)NC(=O)c1cnccn1)B(O)O | inactive
2 | CN(C)CCCN1c2ccccc2C(C)(C)c2ccccc21 | inconclusive: 28.2 µM [fluorescent, full curve]
3 | Cc1cc(C)c(NC(=O)CN)c(C)c1 | inactive
4 | Cc1cc(C)nc(OC(C(=O)O)C(OCCc2ccccc2)(c2ccc(F)cc2)c2ccc(F)cc2)n1 (configuration not stated) | inconclusive: 7.94 µM [inhibitor, partial curve]
5 | COc1ccccc1N=c1oc2cc(O)ccc2cc1C(=O)NCC1CCCO1 (configuration not stated) | inconclusive: 56.2 µM [fluorescent, side channel, single point]
6 | COc1ccccc1S(=O)(=O)c1c(C)cc(C)[nH]c1=O | inconclusive: 25.1 µM [fluorescent, side channel, partial curve]
7 | CC(=O)Nc1ccccc1C(=O)C(=O)Nc1cccc(C(=O)NC2CC2)c1 | inconclusive: 14.1 µM [inhibitor, single point]
8 | CN1CCN(C(=S)NC(=O)c2ccc(-c3ccccc3)cc2)CC1 | inconclusive: 100 µM [fluorescent, side channel, partial curve]
9 | CN(C)CC(=O)N1c2ccccc2CCc2ccc(NC(=O)c3ccc(N)cc3)cc21 | inconclusive: 70.8 µM [quencher, side channel, single point]
10 | Cc1ccccc1S(=O)(=O)NC1OC(=O)C(Oc2ccccc2)=C1Br (configuration not stated) | inconclusive: 31.6 µM [inhibitor, partial curve]
11 | CC1=Nc2ccccc2/C1=C/c1nc(-c2ccc(C)s2)oc1O | inconclusive: 17.8 µM [fluorescent, side channel, partial curve]
12 | O=C1C(Cc2cccc([N+](=O)[O-])c2)SC(=Nc2ccccc2)N1c1ccccc1 (configuration not stated) | inconclusive: 44.7 µM [quencher, side channel, partial curve]
13 | CCCCCCCCCCOC(=O)Cn1c(COc2ccccc2C)[n+](C)c2ccccc21 | inconclusive: 20 µM [quencher, side channel, partial curve]
14 | CC1(c2ccc3ccccc3c2)NC(=O)N(CC(=O)NCc2cccs2)C1=O (configuration not stated) | inconclusive: 70.8 µM [fluorescent, side channel, single point]
15 | O=C(CCN1CCOCC1)NNC(=O)Nc1cccc([N+](=O)[O-])c1 | inconclusive: 8.91 µM [quencher, side channel, partial curve]
16 | CCOC(=O)Cn1nc(/C=C/c2ccc(C)cc2)ccc1=O | inactive
17 | COc1cc(-c2cc3nc(C)c(C)c(=O)n3[nH]2)cc(OC)c1OC | inconclusive: 14.1 µM [quencher, side channel, full curve, poor fit]
18 | COc1cc(OC)c2c(-c3ccccc3)cc(=O)oc2c1C(CCN1CCCC1)c1ccc2c(c1)OCO2 (configuration not stated) | inconclusive: 100 µM [quencher, side channel, partial curve]
19 | CCCSC1=N/C(=C\c2ccc([N+](=O)[O-])o2)C(=O)S1 | inconclusive: 39.8 µM [fluorescent, side channel, partial curve]

Row | SMILES | Potency
20 | Oc1ccc2ccccc2c1C=Nc1ccccc1Br | inconclusive: 15.8 µM [fluorescent, side channel, partial curve]
21 | COc1ccc(/C=C2\SC(=O)N(CCNC(=O)CCS(=O)(=O)c3ccc(C)cc3)C2=O)cc1 | inconclusive: 14.1 µM [fluorescent, side channel, single point]
22 | CNC(=S)N/N=C/c1c2ccccc2c(Cl)c2ccccc12 | inconclusive: 17.8 µM [fluorescent, side channel, partial curve]
23 | Cc1cccc(C(=O)N/N=C/c2ccoc2)c1 | inconclusive: 7.94 µM [fluorescent, side channel, single point]
24 | CCOc1ccc(NC(=O)C[n+]2ccccc2)cc1 | inconclusive: 35.5 µM [inhibitor, single point]
25 | Cc1nn(Cc2c(Cl)cccc2Cl)c(C)c1NC(=O)/C=C/c1cnn(C)c1C | inconclusive: 89.1 µM [quencher, side channel, single point]
26 | CNC[C@@H](Cc1ccccc1)NC[C@@H](CC1CCCCC1)NCCCc1ccccc1 | inconclusive: 11.2 µM [quencher, side channel, full curve]
27 | COC(=O)c1sc(NC(=S)NC(=O)c2ccccc2Cl)nc1C | inconclusive: 25.1 µM [fluorescent, side channel, partial curve, poor fit]
28 | N#Cc1ccc(-c2csc(NC(=O)c3ccc(N4C(=O)CCC4=O)cc3)n2)cc1 | inconclusive: 35.5 µM [inhibitor, partial curve, poor fit]
30 | Oc1ccccc1/C=N/Nc1nccnc1Cl | inconclusive: 3.55 µM [quencher, side channel, full curve]
31 | COCCN(Cc1cc2cc3c(cc2nc1Cl)OCO3)C(=O)Nc1ccc(OC)cc1 | inconclusive: 12.6 µM [quencher, side channel, partial curve]
32 | CC(C(=O)Nc1ccc(F)c(F)c1)N1CCN(C)CC1 (configuration not stated) | inactive
33 | CC[C@@]1(O)C(=O)OCc2c1cc1n(c2=O)Cc2cc3c(CN(C)C)c(O)ccc3nc2-1 | active: 44.7 µM
34 | O=C(O)c1ccc(Cl)c(S(=O)(=O)NC(Cc2c[nH]c3ccccc23)C(=O)O)c1 (configuration not stated) | inconclusive: 31.6 µM [fluorescent, side channel, partial curve]
35 | CCCCNC(=O)CN1C(=O)c2cccc(N)c2C1=O | inconclusive: 70.8 µM [inhibitor, single point]
36 | CC(C)(C)c1cc(NC(=O)CSc2nnc(NCc3ccccc3)s2)n(-c2ccccc2)n1 | inactive
37 | Cc1ccc(Nc2nc(N)c([N+](=O)[O-])c(NCc3ccco3)n2)cc1 | inconclusive: 39.8 µM [fluorescent, side channel, partial curve]

Arranged by molar mass (largest number first): part of the list above.
Row | SMILES | Potency
26 | CNC[C@@H](Cc1ccccc1)NC[C@@H](CC1CCCCC1)NCCCc1ccccc1 | inconclusive: 11.2 µM [quencher, side channel, full curve]
27 | COC(=O)c1sc(NC(=S)NC(=O)c2ccccc2Cl)nc1C | inconclusive: 25.1 µM [fluorescent, side channel, partial curve, poor fit]
24 | CCOc1ccc(NC(=O)C[n+]2ccccc2)cc1 | inconclusive: 35.5 µM [inhibitor, single point]
